Assay results published in PMC6802648.
No constants are given. Whether binding was seen depends on the method and setting. Binding seen in cells or lysates may run through a third protein. Some entries that bind do so weakly or less than the wild type.

Target: T1, Thioredoxin-interacting protein (TXNIP) (human (endogenous in ARPE-19)) (UniProt Q9H3M7)
T1 sequence: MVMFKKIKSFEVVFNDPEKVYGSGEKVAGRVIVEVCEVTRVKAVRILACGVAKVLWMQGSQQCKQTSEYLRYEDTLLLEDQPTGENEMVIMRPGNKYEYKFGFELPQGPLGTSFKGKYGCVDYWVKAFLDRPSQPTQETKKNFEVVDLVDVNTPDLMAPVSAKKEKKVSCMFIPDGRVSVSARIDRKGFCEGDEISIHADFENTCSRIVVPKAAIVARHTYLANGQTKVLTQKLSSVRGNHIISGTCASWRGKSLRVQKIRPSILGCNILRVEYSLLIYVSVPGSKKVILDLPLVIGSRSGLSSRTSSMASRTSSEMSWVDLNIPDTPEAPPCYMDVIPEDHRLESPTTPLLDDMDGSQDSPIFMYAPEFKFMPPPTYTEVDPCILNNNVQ
Test: co-IP; RPE cell lysates in RIPA buffer, precleared; anti-TXNIP antibody, protein A agarose, 4 °C; western blot (Supplementary Fig. 3b)

p53 (from UniProt P04637 1-393)
binding: binds
